For at least one compound, name, drawing or mass did not settle the structure.
Assays:
plasma cAMP = test: In vivo stimulation of cAMP in plasma (ELISA); set-up: species or system FVB/Tac mice; settings: FVB/Tac females, i.p., forskolin 5 mg/kg, rolipram 10 mg/kg, 30 minutes
Procedure: FVB/Tac females were dosed with either vehicle (1% DMSO) or drugs i.p., then 30 minutes later, blood samples were collected and assayed for cAMP by ELISA (Assay Designs, Ann Arbor, Mich., cat#900-163). The drugs used are as follows: 5 mg/kg forskolin (F) (Sigma F6886), 5 mg/kg water soluble forskolin (H20F) (Calbiochem 344273), 10 mg/kg rolipram (R) (Sigma R6520) or combinations of either forskolin plus rolipram (F/R). […] Forskolin increases cAMP levels by activating adencylate cyclase while inhibitors of PDE4, such as rolipram, raise plasma cAMP by preventing hydrolysis of cAMP. A combination of rolipram and water soluble forskolin increases cAMP levels in vivo 14 fold. This combination was used to provide a large window of induction for founder screening by bioimaging, a representative study is shown in FIG. 6.
FIG. 5B is a cAMP assay on plasma levels in wild-type mice following various treatment with forskolin (F), rolipram (R) or a combination of forskolin and rolipram (F/R). […]

[1] = test system: cAMP (CreLuc luciferase reporter); test: Primary microglia CreLuc luciferase assay, general cAMP activators; format: cell-based, mouse; settings: 5 μM forskolin, 4 hours
Procedure: Induction of luciferase expression in microglia isolated from CreLuc mice by the general cAMP activators, forskolin and rolipram, and an agonist for the DP receptor, BW245C was examined (FIG. 22). Primary microglia were isolated from the cortices from P2 mice in media consisting of DMEM (GIBCO Cat#11995), 10% FBS (GIBCO Cat#16140) and 1% Penicillin-Streptomycin 100× (GIBCO Cat#15140). The cells were plated in 96 well format on Poly-D-Lysine-coated plates. Cells were either left untreated or stimulated for 2 hours with 100 ng/ml LPS. Compounds were then added for an additional 4 hours before the Bright Glo assay was run. The compounds used were 5 μM forskolin, 10 μM rolipram or the combination of the two, or the Gs agonist for the DP1 receptor, BW245C at 10 μM. In unstimulated conditions, microglia are unresponsive to general cAMP modulators and the specific Gs agonist for the DP receptor. However, when microglia were stimulated with LPS, the cells became responsive to forskolin and BW245C.

[2] = test system: cAMP pathway (CreLuc luciferase reporter) in brain slices; test: Whole brain slice luminescence, cAMP pathway activators; format: cell-based, mouse; settings: line 44, 50 uM forskolin

C=C[C@@]1(C)CC(=O)[C@]2(O)[C@@]3(C)[C@@H](O)CCC(C)(C)[C@@H]3[C@H](O)[C@H](OC(C)=O)[C@@]2(C)O1 [forskolin]
elevation of circulating cAMP levels vs vehicle (plasma cAMP): did not significantly increase | luciferase response of LPS stimulated microglia ([1]; line 64, 100 ng/ml LPS 2 hours): responsive | luciferase response of unstimulated microglia ([1]; line 64, unstimulated, 10 μM rolipram): unresponsive | luminescence in whole brain slices over time vs vehicle [2]: caused an induction in time dependent manner
